Laboratory results: PMC10721633, “The bacterial replication origin BUS promotes nucleobase capture” (Nature Communications, 2023)
For at least one entry, the source does not settle the construct or the ends of the probe.

Protein sequences, listed by entry. Tags and fused reporters are not part of them. Lines headed by an entry give the natural chain unless they say otherwise; changes in a name come on top.
UniProt P05648: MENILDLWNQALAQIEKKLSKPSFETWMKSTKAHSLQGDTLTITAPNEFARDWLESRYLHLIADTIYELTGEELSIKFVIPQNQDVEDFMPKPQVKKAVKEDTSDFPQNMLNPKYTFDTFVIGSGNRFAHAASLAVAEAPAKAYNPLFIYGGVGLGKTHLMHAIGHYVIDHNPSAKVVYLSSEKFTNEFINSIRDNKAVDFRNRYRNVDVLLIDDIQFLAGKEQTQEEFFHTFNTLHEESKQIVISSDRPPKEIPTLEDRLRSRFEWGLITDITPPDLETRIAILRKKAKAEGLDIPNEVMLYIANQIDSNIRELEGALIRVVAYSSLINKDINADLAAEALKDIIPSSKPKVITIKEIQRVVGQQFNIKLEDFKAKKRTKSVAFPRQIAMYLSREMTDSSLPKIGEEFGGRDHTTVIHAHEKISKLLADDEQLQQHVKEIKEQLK

Molecular target: DnaA (Bacillus subtilis) (UniProt P05648)
Assay: cryo-EM structure
Conditions: ATP; scaffold annealing in 30 mM HEPES-KOH pH 8, 100 mM K acetate, 5 mM Mg acetate; strand separation assay at 20 C; recombinant protein; protein details: His14-SUMO removed

Sequence: TAGTAGAAGTAATAGTAGGGCCTGTGGATTTGTGGATAAGT / ACTTATCCACAAATCCACAGGCCC [BUS tailed scaffold (DnaA-box#6, box#7, ssDNA DnaA-trios)]
- binding result: binds
